Source: paper PMC5520843

Biological target: Gal4BD-OsUbc13 (rice (Oryza sativa L. cv. Japonaca))
Test: two-hybrid; yeast PJ69-4A; Gal4BD-OsUbc13 (pGBT9 derivative) with Gal4AD fusions of Uevs (pGAD424 derivatives); growth by the P_GAL1-HIS3 reporter on minimal medium with up to 5 mM 3-AT; plates incubated for 3 days

B1: Gal4AD-yMms2 (protein, UniProt P53152 1-137)
chain: MSKVPRNFRLLEELEKGEKGFGPESCSYGLADSDDITMTKWNGTILGPPHSNHENRIYSLSIDCGPNYPDSPPKVTFISKINLPCVNPTTGEVQTDFHTLRDWKRAYTMETLLLDLRKEMATPANKKLRQPKEGETF
Question: B1 was tested. Which binding did it give?
Answer: binds

Results are given in words; binding and its absence hold for the method and conditions named. Binding can be weak; no strength is given.
